Assay results from patent US10597378B2 (priority 2017, dated 2020).

Experiments:
[1] = system: wild-type C57BL/6 (B6) mice; assay: Tail flick test (acute thermal pain); assay type: in vivo; conditions: Mus musculus, sc; single subcutaneous injection; read-out: ED50 of antinociception
mice = assay: Tolerance and cross-tolerance, tail-flick test after 5 days twice-daily treatment; assay type: in vivo, mouse; conditions: day 6, equianalgesic dose
[2] = Charcoal meal test (gastrointestinal transit); conditions: B6, mouse, in vivo, sc
Protocol: B6 mice were fasted for at least 16 h before the study with free access to water. In a charcoal meal test, various doses of drugs were administered to the mice 30 min prior to the administration of an aqueous activated charcoal suspension (10% activated charcoal+5% gum Arabic; 0.3 mL). After 30 min, the mice were euthanized by intraperitoneal administration of a ketamine/xylazine cocktail (Sigma) followed by cervical dislocation and the total length of migration of the charcoal meal was measured from the pylorus to the ileocecal junction of the small intestine. The length of the intestine from pylorus to the caecum and the distance traveled by the charcoal were measured. The migration index was expressed as percentage of the distance traveled by the peristaltic charcoal meal relative to the total length of the small intestine, calculated according to the following formula. % of Gastrointestinal transit=Distance Travelled by Charcoal Meal/Full Length of the Small Intestine×100%
Gastrointestinal propulsion was calculated as the percentage of the distance travelled by the charcoal meal relative to the total length of the small intestine, to control for individual variations. The percentage inhibition relative to the control was also calculated as: % Gastrointestinal Inhibition (GI)=(Control group−Drug-treated group)/Control group×100% […]

Question: Which results are given for `CN1CC[C@]23c4c5ccc(O)c4O[C@H]2[C@@H](O)C=C[C@H]3[C@H]1C5.Cl` [morphine, Morphine hydrochloride, reference compound]?
Answer: ED50 [1]: 2.4 mg/kg; antinociceptive effects on challenge in Compound 67-tolerant mice (mice): rescued; antinociceptive effects on challenge in morphine-tolerant mice (mice): not observed; ED50 at 60 min [2]: 1.8 mg/kg
